Reference: PubChem BioAssay AID1224830 (NIAID, 2016)

Screen: 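Host factors that control LPS-induced TNF expression in human macrophages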 (primary screen)
Cells: human THP-1 monocytic leukaemia cells, TNF dual-luciferase reporter clone, PMA-differentiated to macrophage-like cells
Knock-down reagent: siRNA pool against human genes, 50 nM
Time to read-out: LPS for 4 h, given about 3 days after siRNA transfection
Challenge: bacterial LPS (TLR4 ligand), 10 ng/ml
Measured: 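Ratio of firefly to renilla light, scaled to the plate median and expressed as a robust z-score per replicate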
Direction: TNF reporter robust z-score: higher = stronger TNF reporter response to LPS
Call rule: 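Each well counts as active if its z-score is over 2.8 or under -1.5; controls are left without a call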
The whole screen tested about 18,000 reagents; shown is a random part of them. About 2,900 of all reagents (16%) count as active. 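Calls are made per well; low scores hint the gene aids the LPS response, high scores that it dampens it.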 Repeated entries: four replicate wells of each siRNA pool.

For BEND5, what does the deposit list?
call: inactive

For BEND5, what does the deposit list?
TNF reporter robust z-score: 0.2; call: inactive

Which result is listed for BEND5?
TNF reporter robust z-score: -0.07; call: inactive

With BEND5, what was measured?
TNF reporter robust z-score: 0.52; call: inactive

With MYL7, what does the deposit list?
TNF reporter robust z-score: -1.6; call: active

What is on record for MYL7?
TNF reporter robust z-score: -1.15; call: inactive

Which result is listed for MYL7?
TNF reporter robust z-score: -1.18; call: inactive

What is on record for MYL7?
TNF reporter robust z-score: -1.07; call: inactive

How did the screen score RASD1?
TNF reporter robust z-score: -1.6; call: active

How did the screen score RASD1?
TNF reporter robust z-score: -1.27; call: inactive

What did the screen give for RASD1?
TNF reporter robust z-score: -0.54; call: inactive

For RASD1, what was measured?
TNF reporter robust z-score: 0.15; call: inactive

With TLN2, how do the results read?
TNF reporter robust z-score: -1.3; call: inactive

With TLN2, how do the results read?
TNF reporter robust z-score: -1.26; call: inactive

What is on record for TLN2?
TNF reporter robust z-score: -1.31; call: inactive

6 of these entries in another layout:
gene	TNF reporter robust z-score	call
BEND5		inactive
BEND5	0.2	inactive
BEND5	-0.07	inactive
BEND5	0.52	inactive
MYL7	-1.6	active
MYL7	-1.15	inactive

The results go on.
For RAB11FIP3, how do the results read?
TNF reporter robust z-score: 0.62; call: inactive

Which result is listed for RAB11FIP3?
TNF reporter robust z-score: 0.4; call: inactive

With RAB11FIP3, how do the results read?
TNF reporter robust z-score: -1.28; call: inactive

What is on record for RAB11FIP3?
TNF reporter robust z-score: -1.46; call: inactive

With TRIM64, what does the deposit list?
TNF reporter robust z-score: 2.44; call: inactive

Which result is listed for TRIM64?
TNF reporter robust z-score: 0.8; call: inactive

How did the screen score TRIM64?
TNF reporter robust z-score: 0.41; call: inactive

What did the screen give for TRIM64?
TNF reporter robust z-score: 1.29; call: inactive

For WDR70, how do the results read?
TNF reporter robust z-score: 1.02; call: inactive

What is on record for WDR70?
TNF reporter robust z-score: -0.45; call: inactive

How did the screen score WDR70?
TNF reporter robust z-score: -0.89; call: inactive

What is on record for WDR70?
TNF reporter robust z-score: 0; call: inactive

How did the screen score RBMS2?
TNF reporter robust z-score: 0.24; call: inactive

With RBMS2, what was measured?
TNF reporter robust z-score: -0.27; call: inactive

With RBMS2, how do the results read?
TNF reporter robust z-score: -0.13; call: inactive

For RBMS2, what was measured?
TNF reporter robust z-score: 0.55; call: inactive

For CYP2A6, what does the deposit list?
TNF reporter robust z-score: -1.57; call: active

For CYP2A6, what does the deposit list?
TNF reporter robust z-score: -0.93; call: inactive

How did the screen score CYP2A6?
TNF reporter robust z-score: -1.46; call: inactive

With CYP2A6, what was measured?
TNF reporter robust z-score: -1.12; call: inactive

With ACSF3, how do the results read?
TNF reporter robust z-score: 0.07; call: inactive

For ACSF3, what was measured?
TNF reporter robust z-score: 1.33; call: inactive

What is on record for ACSF3?
TNF reporter robust z-score: -0.27; call: inactive

Which result is listed for ACSF3?
TNF reporter robust z-score: 1.01; call: inactive

Which result is listed for TMEM91?
TNF reporter robust z-score: -0.28; call: inactive

What is on record for TMEM91?
TNF reporter robust z-score: 1.17; call: inactive

What is on record for TMEM91?
TNF reporter robust z-score: 0.14; call: inactive

What did the screen give for TMEM91?
TNF reporter robust z-score: 1.01; call: inactive

For CAPN2, how do the results read?
TNF reporter robust z-score: -1.4; call: inactive

With CAPN2, how do the results read?
TNF reporter robust z-score: -1.1; call: inactive

Which result is listed for CAPN2?
TNF reporter robust z-score: -1.56; call: active

With CAPN2, what does the deposit list?
TNF reporter robust z-score: 0.17; call: inactive
